Assay results as given in PubChem BioAssay AID186 (DTP/NCI, 2004).
Shown are survivors of the treated group in tumour-free mice. Survivors were counted at the toxicity check, usually on the fifth day, unless a day is given; later deaths do not show. Schedules are NCI's codes, taken here to give the interval after Q, in days (D) or hours (H), and the number of doses after X.

System: B6D2F1 mice, nontumored toxicity test, survival
Assay: NCI In Vivo Anticancer Drug Screen. Data for tumor model Nontumored Animals (Toxicity Test) in B6D2F1 (BDF1) mice

Measured: survivor count

N[C@H](C(=O)O)[C@H]1ON=C(Cl)[C@@H]1O
8 of 8: dose: 3.12 mg/kg/injection, schedule: Q01DX009 (ip), vehicle: saline | dose: 4.0 mg/kg/injection, schedule: Q01DX009 (ip), vehicle: saline | dose: 4.0 mg/kg/injection, schedule: Q01DX009 (ip), vehicle: saline + alcohol | dose: 6.25 mg/kg/injection, schedule: Q01DX009 (ip), vehicle: saline | dose: 6.25 mg/kg/injection, schedule: Q03HX008 (ip), vehicle: saline | dose: 6.25 mg/kg/injection, schedule: Q03HX016 (ip), vehicle: saline | dose: 6.25 mg/kg/injection, schedule: Q03HX024 (ip), vehicle: saline | dose: 8.0 mg/kg/injection, schedule: Q01DX009 (ip), vehicle: saline | dose: 8.0 mg/kg/injection, schedule: Q01DX009 (ip), vehicle: saline + alcohol | dose: 12.5 mg/kg/injection, schedule: Q01DX009 (ip), vehicle: saline | dose: 12.5 mg/kg/injection, schedule: Q03HX008 (ip), vehicle: saline | dose: 12.5 mg/kg/injection, schedule: Q03HX016 (ip), vehicle: saline | dose: 12.5 mg/kg/injection, schedule: Q03HX024 (ip), vehicle: saline | dose: 16.0 mg/kg/injection, schedule: Q01DX009 (ip), vehicle: saline | dose: 16.0 mg/kg/injection, schedule: Q01DX009 (ip), vehicle: saline + alcohol | dose: 25.0 mg/kg/injection, schedule: Q01DX001 (ip), vehicle: saline | dose: 25.0 mg/kg/injection, schedule: Q01DX009 (ip), vehicle: saline | dose: 25.0 mg/kg/injection, schedule: Q03HX008 (ip), vehicle: saline | dose: 25.0 mg/kg/injection, schedule: Q03HX016 (ip), vehicle: saline | dose: 25.0 mg/kg/injection, schedule: Q03HX024 (ip), vehicle: saline | dose: 25.0 mg/kg/injection, schedule: Q04DX003 (ip), vehicle: saline | dose: 25.0 mg/kg/injection, schedule: Q08DX002 (ip), vehicle: saline | dose: 32.0 mg/kg/injection, schedule: Q01DX009 (ip), vehicle: saline | dose: 32.0 mg/kg/injection, schedule: Q01DX009 (ip), vehicle: saline + alcohol | dose: 50.0 mg/kg/injection, schedule: Q01DX001 (ip), vehicle: saline | dose: 50.0 mg/kg/injection, schedule: Q01DX009 (ip), vehicle: saline | dose: 50.0 mg/kg/injection, schedule: Q03HX008 (ip), vehicle: saline | dose: 50.0 mg/kg/injection, schedule: Q03HX016 (ip), vehicle: saline | dose: 50.0 mg/kg/injection, schedule: Q03HX024 (ip), vehicle: saline | dose: 50.0 mg/kg/injection, schedule: Q04DX003 (ip), vehicle: saline | dose: 50.0 mg/kg/injection, schedule: Q08DX002 (ip), vehicle: saline | dose: 64.0 mg/kg/injection, schedule: Q01DX009 (ip), vehicle: saline | dose: 64.0 mg/kg/injection, schedule: Q01DX009 (ip), vehicle: saline + alcohol | dose: 100.0 mg/kg/injection, schedule: Q01DX001 (ip), vehicle: saline | dose: 100.0 mg/kg/injection, schedule: Q01DX009 (ip), vehicle: saline | dose: 100.0 mg/kg/injection, schedule: Q03HX008 (ip), vehicle: saline | dose: 100.0 mg/kg/injection, schedule: Q03HX016 (ip), vehicle: saline | dose: 100.0 mg/kg/injection, schedule: Q03HX024 (ip), vehicle: saline | dose: 100.0 mg/kg/injection, schedule: Q04DX003 (ip), vehicle: saline | dose: 100.0 mg/kg/injection, schedule: Q08DX002 (ip), vehicle: saline | dose: 128.0 mg/kg/injection, schedule: Q01DX009 (ip), vehicle: saline | dose: 128.0 mg/kg/injection, schedule: Q01DX009 (ip), vehicle: saline + alcohol | dose: 200.0 mg/kg/injection, schedule: Q01DX001 (ip), vehicle: saline | dose: 200.0 mg/kg/injection, schedule: Q01DX009 (ip), vehicle: saline | dose: 200.0 mg/kg/injection, schedule: Q04DX003 (ip), vehicle: saline | dose: 200.0 mg/kg/injection, schedule: Q08DX002 (ip), vehicle: saline | dose: 256.0 mg/kg/injection, schedule: Q01DX009 (ip), vehicle: saline | dose: 256.0 mg/kg/injection, schedule: Q01DX009 (ip), vehicle: saline + alcohol | dose: 400.0 mg/kg/injection, schedule: Q01DX001 (ip), vehicle: saline | dose: 400.0 mg/kg/injection, schedule: Q04DX003 (ip), vehicle: saline | dose: 400.0 mg/kg/injection, schedule: Q08DX002 (ip), vehicle: saline | dose: 512.0 mg/kg/injection, schedule: Q01DX009 (ip), vehicle: saline | dose: 512.0 mg/kg/injection, schedule: Q01DX009 (ip), vehicle: saline + alcohol
